The results in this text go back to publication PMC11058670.

The chains behind the UniProt entries cited, without tags or fusion partners.
UniProt Q9NRC8: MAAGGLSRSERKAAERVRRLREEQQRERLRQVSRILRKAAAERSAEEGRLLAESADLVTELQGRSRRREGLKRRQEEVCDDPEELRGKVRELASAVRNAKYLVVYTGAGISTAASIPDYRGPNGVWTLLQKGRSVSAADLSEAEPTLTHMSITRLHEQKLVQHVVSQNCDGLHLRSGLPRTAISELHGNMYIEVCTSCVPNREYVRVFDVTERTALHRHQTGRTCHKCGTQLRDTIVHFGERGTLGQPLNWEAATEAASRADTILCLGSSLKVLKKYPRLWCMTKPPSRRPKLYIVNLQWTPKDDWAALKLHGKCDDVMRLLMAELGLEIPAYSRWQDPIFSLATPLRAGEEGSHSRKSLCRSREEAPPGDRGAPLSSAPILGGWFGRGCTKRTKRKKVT

The target of one assay is T1, GST-HIC1 fusion protein (UniProt Q14526).
T1 sequence: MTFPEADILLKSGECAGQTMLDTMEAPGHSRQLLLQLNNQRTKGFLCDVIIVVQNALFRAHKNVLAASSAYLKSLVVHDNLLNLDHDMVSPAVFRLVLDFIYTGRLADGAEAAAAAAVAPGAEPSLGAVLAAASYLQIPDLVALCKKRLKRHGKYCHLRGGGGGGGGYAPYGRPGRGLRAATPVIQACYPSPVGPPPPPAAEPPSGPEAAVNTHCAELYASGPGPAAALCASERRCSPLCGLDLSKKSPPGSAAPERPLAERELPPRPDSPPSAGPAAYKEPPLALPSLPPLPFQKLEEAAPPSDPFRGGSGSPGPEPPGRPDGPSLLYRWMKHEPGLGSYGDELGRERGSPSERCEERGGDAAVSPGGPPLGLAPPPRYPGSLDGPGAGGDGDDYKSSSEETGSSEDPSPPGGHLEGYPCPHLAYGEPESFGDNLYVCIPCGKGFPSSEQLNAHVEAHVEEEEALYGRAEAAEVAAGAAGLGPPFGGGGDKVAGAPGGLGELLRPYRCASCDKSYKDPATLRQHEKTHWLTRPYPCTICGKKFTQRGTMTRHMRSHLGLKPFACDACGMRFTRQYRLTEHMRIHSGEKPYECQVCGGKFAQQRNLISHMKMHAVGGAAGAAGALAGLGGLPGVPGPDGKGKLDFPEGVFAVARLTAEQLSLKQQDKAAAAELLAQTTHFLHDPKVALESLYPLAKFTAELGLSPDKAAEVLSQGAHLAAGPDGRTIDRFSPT
Kind of assay: pull-down; His-Sirt7 and GST-HIC1 fusion proteins mixed in a GST or His buffer at 4°C for 12 h; anti-His or anti-GST magnetic beads for more than 4 h; Western blot; both purified.

For assay [1], the target named is T2, hypermethylated in cancer 1 (HIC1) (human (endogenous in HGECs)) (UniProt Q14526).
T2 sequence: T1 sequence
The assay is described as follows: co-IP; endogenous proteins in HGEC extracts; primary antibodies with protein A/G Dynabeads, 12 h at 4°C; IgG control; Western blot.

These are yes or no findings as the source states them, for the method shown. For some assays here: Binding seen in cells or lysates may run through a third protein. Some results given as binding are weak or reduced against the parent protein; the word gives no strength. For some assays here: Where a sequence is shown, tags or fusion partners need not be part of it.

Take “His-Sirt7 fusion protein (from UniProt Q9NRC8 1-400)”: in the assay with GST-HIC1 fusion protein, the binding result is recorded as “binds”.
Take “Sirtuin 7 (Sirt7) (from UniProt Q9NRC8 1-400)”: in assay [1], the binding result is “binds”.
